Data taken from US10858423B2 (PIERRE FABRE MEDICAMENT, priority 2015, dated 2020).

Assay: general procedure: solution-phase peptide synthesis; DEPC/DIEA; HATU/DIEA

| Substance | step yield (coupling step) | final HPLC purity (coupling step, 210 nm) | step yield (late stage modification step) | final HPLC purity (coupling step, 254 nm) |
| --- | --- | --- | --- | --- |
| methyl (S)-2-((2R,3R)-3-((S)-1-((3R,4S,5S)-4-((S)-2-((S)-2-((3-aminopropyl)(methyl)amino)-3-methylbutanamido)-N,3-dimethylbutanamido)-3-methoxy-5-methylheptanoyl)pyrrolidin-2-yl)-3-methoxy-2-methylpropanamido)-3-phenylpropanoate | 26% | 91.5% |  |  |
| methyl (S)-2-((2R,3R)-3-((S)-1-((3R,4S,5S)-4-((S)-2-amino-N,3-dimethylbutanamido)-3-methoxy-5-methylheptanoyl)pyrrolidin-2-yl)-3-methoxy-2-methylpropanamido)-3-phenylpropanoate |  |  | 81% |  |
| methyl (S)-2-((2R,3R)-3-((S)-1-((3R,4S,5S)-4-((S)—N,3-dimethyl-2-((S)-3-methyl-2-(methyl(4-(methylamino)phenethyl)amino)butanamido)butanamido)-3-methoxy-5-methylheptanoyl)pyrrolidin-2-yl)-3-methoxy-2-methylpropanamido)-3-phenylpropanoate | 7% |  |  | 90.6% |
